Measurements taken from publication PMC11342681.
No constants are given. Whether binding was seen depends on the method and setting. Binding seen in cells or lysates may run through a third protein. These calls come from enrichment with a bait or labelling near it, and not all partners need be listed.

Target: ΔNp63 (human (endogenous in MCF10A MII))
Test: affinity purification with mass spectrometry; nuclear fractions of MCF10A MII cells treated or not with TGFβ (5 ng/ml) for 6 h; immunoprecipitation with a p63 antibody on protein A Dynabeads; on-bead trypsin digestion, LC-MS/MS

B1: AP-1 family transcription factor JUNB (protein, UniProt P17275 1-347)
chain: MCTKMEQPFYHDDSYTATGYGRAPGGLSLHDYKLLKPSLAVNLADPYRSLKAPGARGPGPEGGGGGSYFSGQGSDTGASLKLASSELERLIVPNSNGVITTTPTPPGQYFYPRGGGSGGGAGGAGGGVTEEQEGFADGFVKALDDLHKMNHVTPPNVSLGATGGPPAGPGGVYAGPEPPPVYTNLSSYSPASASSGGAGAAVGTGSSYPTTTISYLPHAPPFAGGHPAQLGLGRGASTFKEEPQTVPEARSRDATPPVSPINMEDQERIKVERKRLRNRLAATKCRKRKLERIARLEDKVKTLKAENAGLSSTAGLLREQVAQLKQKVMTHVSNGCQLLLGVKGHAF
  binding: binds
